Measurements taken from PubChem BioAssay AID1273 (Columbia University Molecular Screening Center, 2008).
Some of the results follow. Further columns of the screen follow, without active or inactive calls. The list favours compounds with an active or inconclusive main result.

Assay: inhibitors of insulin promoter-driven GFP, primary screen, imaging, TRM-6 cells (human fetal islet line), eGFP reporter, cell count (AID 1273)
Details: measured here: cell count, toxicity, at 2 µM, reporter expression induced with tamoxifen

Row | SMILES | normalized cell count [%]
1 | C=CCn1c(-c2cccs2)nc2ccccc21 | 88.5
2 | CC(C)C(=O)N1CCN(c2ccc(NC(=O)c3ccc4c(c3)OCCO4)cc2)CC1 | 88.8
3 | Nc1ncnc(Nc2ccccc2C(F)(F)F)n1 | 144
4 | CCOc1ccccc1NC(=O)Cc1ccccc1OC | 129
5 | COc1ccc(NC(=S)NNC(=O)CCn2cc([N+](=O)[O-])cn2)cc1 | 49.6
6 | Cn1c(SCc2ccc(F)cc2)nnc1-c1cccs1 | 78.5
7 | CC(=O)C(=Nc1ccccc1Cl)NNc1ccc(Cl)cc1 | 111
8 | CCCCNC(=O)OCC(CC)NC(=O)OC(C)C (configuration not stated) | 118
9 | CC(=O)NC1(c2cccc(F)c2)CCN(CC(=O)NC2CCCCC2)CC1 | 127
10 | Cc1sc2c(c1C)c(=O)n(-c1cccc(C(F)(F)F)c1)c(=O)n2CC(=O)NCc1ccco1 | 47.6
11 | Cc1cc(C(=O)NCc2ccccc2)c(=O)[nH]c1C | 98.3
12 | N#C/C(=C\C1CC2C=CC1C2)c1nc2ccccc2[nH]1 (configuration not stated) | 171
13 | CSc1ccc(/C=C(/Sc2nnc(-c3ccccc3)o2)C(=O)O)cc1 | 52.9
14 | Cc1ccc(N=Nc2c(C)[nH][nH]c2=O)c(C)c1 | 110
15 | CCn1c(COc2ccc3c(c2)OCO3)nnc1SCC(=O)O | 132
16 | CCOC(=O)c1oc2c(c1C)/C(=N/O)CCC2 | 112
17 | CCOc1ccc(N2C(=O)CC(Sc3nccc(C)n3)C2=O)cc1 (configuration not stated) | 21.4
18 | Cc1ccc(NC(=O)COC(=O)CN2C(=O)NC(C)(C)C2=O)cc1S(=O)(=O)N1CCOCC1 | 160
19 | O=C(NCc1ccc(Cl)cc1)C(=O)NCC1OCCN1C(=O)c1ccc(Cl)cc1 (configuration not stated) | 70.9
20 | CCn1c(C2CC(=O)N(c3cc(C)cc(C)c3)C2)nc2ccccc21 (configuration not stated) | 137
21 | Cn1c(=O)c(Oc2ccc(F)cc2)c(O)c2ccccc21 | 81
22 | CNC(=O)c1cc(C)c(-c2ccccc2)s1 | 106
23 | CCc1ccc(NC(=S)N2CCCCCCC2)cc1 | 40.5
24 | CCCCn1c(CN(C)Cc2ccccc2)nc2c1c(=O)n(C)c(=O)n2C | 92.9
25 | C[N+]12CCCCC1C(COC(=O)c1ccc3c(c1)OCO3)CCC2 (configuration not stated) | 47.8
26 | Cn1c(=O)c2c(nc(CN3CCOCC3)n2CCCc2ccccc2)n(C)c1=O | 180

Row | SMILES | normalized cell count [%]
27 | CCOc1ccc(Br)cc1CC(=O)O | 73.7
28 | Cc1cccc(N2CCCn3c2nc2c3c(=O)n(CCN3CCOCC3)c(=O)n2C)c1 | 105
29 | COc1ccc2[nH]c(=O)c(CN(C(C)=O)c3cccc(C)c3)cc2c1 | 100
30 | Cc1nc(Nc2ccc3c(c2)OCO3)c2oc3ccccc3c2n1 | 140
31 | CCCn1nnc(NC(=O)c2ccc(Br)cc2)n1 | 164
32 | N#CCCN1CCNCC1 | 113
33 | Cc1ccc(NCCc2ccc(C)nc2)cc1 | 153
34 | CCN1C/C(=C/c2cccc([N+](=O)[O-])c2)C(=O)/C(=C/c2cccc([N+](=O)[O-])c2)C1 | 0
35 | CCOc1nc(NC(=O)NS(=O)(=O)c2ccccc2F)nc(-c2ccccc2)n1 | 133
36 | COc1ccc(-c2nc(SCC(=O)NCc3ccco3)c(-c3ccccc3)[nH]2)cc1OC | 86.7
37 | COc1ccc(C(=O)O)cc1F | 115
38 | CN1CCN(C(=O)CSc2ccc(Cl)cc2)CC1 | 87.5
39 | O=C(CSc1nnnn1Cc1ccccc1)c1ccccc1F | 41.1
40 | CSc1nc(-c2ccc(Cl)cc2)nn1C(=O)c1ccccc1 | 172
41 | O=C(CSc1nnc2ccccn12)NCc1ccco1 | 54
42 | CC(C)OCCCNC(=O)NC12CC3CC(CC(C3)C1)C2 | 151
43 | COc1ccc(NC(=O)N2CCCCC2)cc1 | 102
44 | CC1=C(C(=O)OCc2ccc(C)cc2)C(c2ccc(O)c([N+](=O)[O-])c2)NC(=O)N1 (configuration not stated) | 46.9
45 | O=C(CSc1ccc(-c2ccco2)nn1)Nc1ccccc1 | 181
46 | CCNc1nc(NC(C)C)nc(OCC)n1 | 161
47 | CC1CC1C(=O)OCC(=O)NC(=O)NC12CC3CC(CC(C3)C1)C2 (configuration not stated) | 22.9
48 | COC(=O)c1ccc2nc(C(F)(F)F)[nH]c2c1 | 77.8
49 | CN(Cc1ccc(O)cc1)C1CCCCC1 | 56.2
50 | CC(=O)NC1C(=O)N(CCc2ccccc2)c2ccc(Br)cc21 (configuration not stated) | 68.3
51 | CN(/N=C/c1cccnc1)c1cnc2ccccc2n1 | 96
52 | O=C(NCc1ccccc1Cl)C(=O)NCC(c1ccco1)N1CCOCC1 (configuration not stated) | 78.2

From entry 45 to 48, copied from above:
Row | SMILES | normalized cell count [%]
45 | O=C(CSc1ccc(-c2ccco2)nn1)Nc1ccccc1 | 181
46 | CCNc1nc(NC(C)C)nc(OCC)n1 | 161
47 | CC1CC1C(=O)OCC(=O)NC(=O)NC12CC3CC(CC(C3)C1)C2 (configuration not stated) | 22.9
48 | COC(=O)c1ccc2nc(C(F)(F)F)[nH]c2c1 | 77.8

Following part

Row | SMILES | normalized cell count [%]
53 | Cc1cc(N2CCOCC2)nc2ccc(NC(=S)N3CCCCC3C)cc12 (configuration not stated) | 44
54 | CCN1C(=O)CC(N2CCN(c3ccc(C(=O)c4ccncc4)cc3)CC2)C1=O (configuration not stated) | 134
55 | COC(=O)c1c(N2C(=O)Nc3ccccc3N2O)sc2c1CCCC2 | 166
56 | CC(C)Cn1nc(NC(=O)C2CCCO2)c2cc3ccccc3nc21 (configuration not stated) | 158
57 | COc1cc(CC(=O)Nc2cccc(SC)c2)cc(OC)c1OC | 101
58 | Cn1ccc(=S)c2ccccc21 | 66
59 | CS(=O)(=O)NCCCNc1c(Cl)cccc1[N+](=O)[O-] | 53.5
60 | O=C(CSc1ncccn1)NN=C1CCCCCC1 | 172
61 | O=C(NCc1ccccc1)N[C@@H](Cc1c[nH]c2ccccc12)C(=O)O | 78.9
62 | CN1C(=O)NC(c2ccccc2)C2=C1CN(Cc1ccco1)C2=O (configuration not stated) | 67.5
63 | Cc1[nH]nc2ncc(C(=O)c3ccccc3O)cc12 | 130
64 | Cc1nc2c([nH]c3ccccc32)c(=O)n1N | 74.7
65 | COc1ccc(NC(=O)COC(=O)C2CC3C=CC2C3)cc1 (configuration not stated) | 94.4
66 | Cc1ccc(NC(=O)CC(O)(C(F)(F)F)C(F)(F)F)cc1 | 128
67 | C#CCn1c(-c2cccs2)nc2ccccc21 | 141
68 | COc1ccc2cc3c(N)nn(C(=O)C4CCC(C(C)(C)C)CC4)c3nc2c1 (configuration not stated) | 90.3
69 | NC(=O)Cc1nc(-c2ccc([N+](=O)[O-])cc2)cs1 | 95.5
70 | CCC(=O)c1cc(F)c(N2CCN(C(=O)c3ccco3)CC2)cc1C | 139
71 | Nc1cc(N2CCCCC2)c([N+](=O)[O-])cc1Cl | 115
72 | O=C(Nc1ccc2nc(-c3ccccc3)[nH]c2c1)c1cccs1 | 185
73 | O=C(N/N=C/c1cc([N+](=O)[O-])c(N2CCOCC2)cc1N1CCOCC1)c1cccnc1 | 120
74 | COC(=O)c1ccc(Oc2nc(C(N)=O)cc(-c3ccccc3)n2)cc1 | 57
75 | Nc1ncc(Br)cc1N=Cc1ccccc1 | 83.3
76 | COc1ccc(CNC(=O)/C=C/c2ccco2)cc1OC | 19.4
77 | Cc1ccc(SCC2=NN(c3nc(C)cc(C)n3)C(=O)C2)cc1 | 95.1
